Measured values as given in US12527762B2 (priority 2021, dated 2026).
Some of these results come from one statement about several compounds together. At least one compound was matched to its structure with a doubt left.

System: Vero cells

Structure (SMILES) | CC50 [µM]
CN(C)C(=O)COC(=O)Cc1ccc(OC(=O)c2ccc(NC(=N)N)cc2)cc1.O=C(Nc1ccc([N+](=O)[O-])cc1Cl)c1cc(Cl)ccc1O [Example 1] | ≥ 50
CN(C)C(=O)COC(=O)Cc1ccc(OC(=O)c2ccc(NC(=N)N)cc2)cc1.O=C(Nc1ccc([N+](=O)[O-])cc1Cl)c1cc(Cl)ccc1O [Example 17] | ≥ 50
